Results are given in words; binding and its absence hold for the method and conditions named. Binding seen in cells or lysates may run through a third protein. Binding calls can cover weak binding; strength is not graded here.
Target: T1, human Tspan-8·mScarlet (in INS-1 cells) (human) (UniProt P19075)
T1 sequence: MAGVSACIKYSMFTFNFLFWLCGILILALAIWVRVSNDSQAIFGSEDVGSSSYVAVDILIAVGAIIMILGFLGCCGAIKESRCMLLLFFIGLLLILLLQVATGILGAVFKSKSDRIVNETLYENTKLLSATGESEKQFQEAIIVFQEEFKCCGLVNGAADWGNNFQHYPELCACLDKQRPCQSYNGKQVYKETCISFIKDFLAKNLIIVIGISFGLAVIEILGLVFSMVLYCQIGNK
Assay: co-IP; RFP immunoprecipitation from lysates of INS-1 cells over expressing hTspan-8·mScarlet; western blot; WT INS-1 cells as control

syntaxin-1 (endogenous in INS-1 cells) (rat (endogenous in INS-1))
binding: binds
